At least one compound was matched to its structure with a doubt left.
Experiments:
[1] = tested on: EMRSA-17; assay: Reversal of multi-drug resistance (MIC / FIC, Alamar blue); format: cell-based, Staphylococcus aureus; details: with compound I only
Procedure: (§1) Fixed concentration of compounds I and II and increasing concentration of antibiotics (drugs) were made in 96-well plates. 5×10^5 multidrug resistant S. aureus cells were added in each well and incubated for 20-24 hours. No test compounds and antibiotics were present in control wells Inhibition and growth were noted both visually and by using the dye Alamar blue. FIC of Antibiotic a (FICa)=MIC of Antibiotic a in combination/MIC of Antibiotic a alone FIC of Compound b (FICb)=MIC of Compound b in combination/MIC of Compound b alone
(§2) The sum of Fractional Inhibitory Concentration (FICs) index of (FICa)+(FICb)=(FICs). Fractional inhibitory concentrations were calculated by the above cited formula. (The FIC values of compounds I and II are available (FIGS. 4A and 4B). Protocol of Chung et al. (2011), with slight modifications, was followed for above discussed reversal resistance assay.

[2] = tested on: EMRSA-16; assay: as above; format: cell-based, Staphylococcus aureus; details: with both compounds I and II
Procedure: as §1, §2

CCC[C@@H]1C[C@@H](C(=O)N[C@@H]([C@H]2O[C@H](SC)[C@H](O)[C@@H](O)[C@H]2O)[C@H](C)Cl)N(C)C1 [clindamycin]
interaction of antibiotic with compound (FIC) [1]: indifference effect
interaction of antibiotic with compounds (FIC) [2]: partial synergistic activity
